Our source for the cell number change and AC50 values is PubChem BioAssay AID2685 (National Center for Advancing Translational Sciences (NCATS), 2010).

The nature of this assay: qHTS Assay for Lipid Storage Modulators in Drosophila S3 Cells.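 For cell number change: cells counted by Cell Tracker Red CMTPX staining in the red channel.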 The note with it: BODIPY lipid droplet fluorescence, 18-24 h; for cell number change: measured here: cell count max response, cells fed with added oleic acid. The method in brief:
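Laser-scanning cytometry quantifies lipid droplet accumulation (500–530 nm total intensity; droplet/cell object ratio) in oleic acid-fed (400 uM added) Drosophila S3 cells treated with a concentration series. 20 uM Triacsin C defined 100% inhibition.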
In general terms: In qHTS, concentration-response curves come from the screen itself.

Where [1] appears, read: measured here: cell number channel AC50, cells fed with added oleic acid.
[2] abbreviates: measured here: lipid fluorescence (Fed channel) AC50, cells fed with added oleic acid.

Some of the results follow. Further columns of the screen follow, without active or inactive calls. Compounds called inactive in the main read-out are mostly missing here. Words in brackets tell the shape of the fitted curve; partial curves, single points and poor fits give uncertain potencies.

With `CC(=O)Nc1ccc(S(=O)(=O)N(Cc2ccccc2)c2ccccc2)cc1`, the cell number change is -6.46%. Moreover, the AC50 under setting [1] is 0.00517 µM [falling, full curve, poor fit].

In the case of `COc1cc2c(cc1OC)C(=O)CC(C)S2` (stereo unspecified), the cell number change was -9.66%. In addition, the half-maximal activity concentration (AC50) under setting [1] was 0.00517 µM [falling, full curve, poor fit].

With `CCOC(=O)C1=C(NC(=S)NC(=O)c2ccccc2)c2ccccc2CC1(C)CC` (stereo unspecified), the cell number change was -38%. The AC50 under setting [1] was 7.31 µM [falling, partial curve, poor fit].

As to `CC(NC(=O)/C=C/c1ccco1)c1nc2ccccc2n1Cc1cccc(Cl)c1` (stereo unspecified), the cell number change was -0.476%. Besides, the AC50 under setting [2] was 1.3 µM [falling, single point].

Regarding `COCCN(CC1CCCN(C2Cc3ccccc3C2)C1)C(=O)c1cccc(C)c1` (stereo unspecified), the cell number change is -4.2%.

In the case of `COc1ccc(NC(=O)Nc2ccc(CC(=O)O)cc2)cc1`, the AC50 under setting [2] is 5.8 µM [falling, full curve].

In the case of `CCCCOC(=O)CCc1c(C)[nH]c(=O)c(C#N)c1C`, the cell number change was determined as 17.9%. Also, the AC50 under setting [2] was 2.31 µM [rising, single point].

As to `Cc1ccc(CS(=O)(=O)Cc2ccc(C(=O)NCCc3ccccc3)o2)cc1`, the cell number change is 7.31%. The AC50 under setting [2] is 6.51 µM [rising, single point].

For the compound `CCCN(CC(=O)Nc1ccccc1C)C(=O)COc1c(C)cccc1C`, the cell number change was -10.6%. In addition, under setting [2], the AC50 is 11.6 µM [rising, partial curve].

As for `Cc1nn(Cc2ccccc2Cl)c2sc(C(=O)Nc3nccs3)cc12`, the cell number change was determined as 14.8%. Under setting [1], the AC50 is 1.16 µM [rising, partial curve]. Besides, the half-maximal activity concentration (AC50) under setting [2] is 0.82 µM [rising, partial curve].

As for `Cc1ccc(C(=O)N/N=C2\CC3CC=CC23)c(C)c1` (stereo unspecified), the cell number change came to 77.5%. Under setting [1], the AC50 is 16.4 µM [rising, partial curve].

With `COc1ccc(-n2nc(C(=O)NCC(=O)N3CCCC(C)C3)c3ccccc3c2=O)cc1` (stereo unspecified), the cell number change was -7.66%. The half-maximal activity concentration (AC50) under setting [2] was 29.1 µM [falling, single point].

Consider `CCOc1ccccc1C(=O)N(C)Cc1cc2ccccc2[nH]c1=O`, for which the cell number change stood at 65.6%. The AC50 under setting [1] was 5.8 µM [rising, full curve]. Under setting [2], the AC50 was 9.2 µM [rising, partial curve].

With `O=c1c2ccccc2nc(-c2ccc([N+](=O)[O-])cc2)n1O`, the cell number change came out at 17.9%.

On to `C(=C\c1ccccc1)/C=N/n1cnnc1`, for which the cell number change was 1.78%. Besides, the AC50 under setting [2] was 0.291 µM [falling, full curve, poor fit].

As for `CC(C)N(Cc1ccccc1)S(=O)(=O)N(C)C`, the cell number change was -3.57%.

Regarding `COc1ccc(NC(=O)c2ccc([N+](=O)[O-])cc2[N+](=O)[O-])c(OC)c1`, the concentration at half-maximal activity (AC50) under setting [1] is 0.411 µM [falling, partial curve, poor fit].

On to `O=C(NCC1CCN(c2ccc(S(=O)(=O)N3CCOCC3)cc2)CC1)Nc1ccccc1F`, for which the cell number change was determined as 4.17%.

With `CC1CN(Cc2cc(=O)oc3cc(O)ccc23)CC(C)O1` (stereo unspecified), the cell number change turned out to be 3.91%.

Turning to `O=c1cc(-c2ccccc2)nc(SCc2ccccc2F)[nH]1`, the cell number change was 2.55%.

For `CCC1(C)Cc2ccccc2-c2nc(-c3ccccc3)oc(=O)c21` (stereo unspecified), the cell number change is 12.6%. For the same compound, the half-maximal activity concentration (AC50) under setting [2] is 29.1 µM [rising, single point].

Turning to `COc1ccc(NC(=O)CC2C(=O)N(Cc3cccs3)C(=S)N2C(C)C)cc1` (stereo unspecified), the cell number change worked out at 16.2%. The AC50 under setting [1] is 0.461 µM [rising, single point]. For the same compound, the AC50 under setting [2] is 0.206 µM [rising, full curve].

Regarding `CCN(CC)S(=O)(=O)c1ccc(/C=C/C(=O)OCC(=O)N(C(C)C)C(C)C)cc1`, the cell number change is -46.9%.

As to `CCOc1ccc(CCNC(=O)CSC(=S)N2CCCC2)cc1OCC`, the cell number change is -36.5%. The half-maximal activity concentration (AC50) under setting [1] was 0.58 µM [falling, partial curve, poor fit].

In the case of `Cc1ccc(NC(=O)CCC(C(=O)O)N2C(=O)c3ccccc3C2=O)cc1` (stereo unspecified), the cell number change stood at 8.92%.

On to `N#C/C(=C(/O)Cc1cccc2ccccc12)c1nc2ccccc2s1`, for which the cell number change is 0.542%. The AC50 under setting [2] is 6.51 µM [falling, single point].

As to `CCc1nc(N2CCN(c3nc(C)cc(C)n3)CC2)c2oc3ccccc3c2n1`, the cell number change came to 24%. For the same compound, the half-maximal activity concentration (AC50) under setting [2] was 0.231 µM [rising, full curve].

Take `CCOc1ccccc1C1C(C(=O)OC)=C(N)OC2=C1C(=O)CCC2` (stereo unspecified): the cell number change was 17.3%. Moreover, the half-maximal activity concentration (AC50) under setting [1] is 6.51 µM [rising, single point]. In addition, the AC50 under setting [2] is 6.51 µM [rising, partial curve].

In the case of `O=C(COC(=O)Cc1ccc(Cl)cc1)Nc1ccc2[nH]c(=O)[nH]c2c1`, the cell number change is 34.6%. Under setting [1], the concentration at half-maximal activity (AC50) is 29.1 µM [rising, single point].

For `Cn1nnnc1SCC(=O)Nc1ccc(Cl)cc1Cl`, the cell number change is -0.329%. The concentration at half-maximal activity (AC50) under setting [2] was 0.00461 µM [falling, full curve, poor fit].

`CCOC(=O)CC1C(=O)NCCN1C(=O)COc1ccc(C(C)(C)C)cc1` (stereo unspecified): the cell number change was 7.14%.

For `Cc1ccc(-n2nc(-c3cccs3)cc2C(=O)NCC2CCCO2)c(C)c1` (stereo unspecified), the half-maximal activity concentration (AC50) under setting [2] was 6.51 µM [rising, single point].

Take `c1ccc(C2OCC3(CO2)COC(c2ccccc2)OC3)cc1` (stereo unspecified): the cell number change is -16.1%. Moreover, the AC50 under setting [1] is 6.51 µM [falling, single point]. In addition, the AC50 under setting [2] is 6.51 µM [falling, single point].

Consider `O=C(CC(n1cncn1)C(Cl)(Cl)Cl)c1ccc([N+](=O)[O-])cc1` (stereo unspecified), for which the cell number change is -60.3%. For the same compound, under setting [1], the concentration at half-maximal activity (AC50) was 32.6 µM [falling, single point].

Consider `Cc1sc(N)c(C(=O)c2ccccc2)c1C`, for which the cell number change is -28.8%. The AC50 under setting [2] was 32.6 µM [falling, single point].

Consider `Cc1cc(C(=O)NC(C)C2CCCO2)cs1` (stereo unspecified), for which the cell number change came to 4.14%. The AC50 under setting [2] was 14.6 µM [falling, single point].

In the case of `CCOC(=O)Cc1csc(NC(=O)CSc2nnnn2-c2ccc(F)cc2)n1`, the cell number change is -31.5%. Besides, under setting [1], the concentration at half-maximal activity (AC50) is 29.1 µM [falling, single point].

Regarding `Cc1cc(OCC(=O)OCC(=O)Nc2cccnc2Cl)ccc1Cl`, the cell number change was -11.5%.

Consider `N#Cc1nc(COc2ccc(-c3ccccc3)cc2)oc1NCc1cccnc1`, for which the cell number change is -26.4%. For the same compound, the AC50 under setting [2] is 0.651 µM [rising, full curve].

For the compound `Cc1cc(Cl)ccc1OC(C)C(=O)NN=C1CCCCCC1` (stereo unspecified), the cell number change was -2.86%. Also, the AC50 under setting [2] is 29.1 µM [rising, partial curve].

Regarding `COc1ccc(-c2csc(NS(=O)(=O)c3ccc([N+](=O)[O-])cc3)n2)cc1`, the cell number change was 6.02%. Moreover, under setting [1], the AC50 is 0.13 µM [falling, full curve, poor fit]. For the same compound, the AC50 under setting [2] was 0.651 µM [falling, single point].

For the compound `CN(Cc1ccccc1OCCO)CC1CCCN(CCc2ccc(Cl)cc2)C1` (stereo unspecified), the cell number change amounted to 6.32%. In addition, the concentration at half-maximal activity (AC50) under setting [2] is 9.2 µM [rising, partial curve].

As to `C=CCOc1cccc(C2/C(=C(\O)c3ccc4c(c3)OCCO4)C(=O)C(=O)N2CCN2CCOCC2)c1` (stereo unspecified), the cell number change is -20.6%.

`Cc1ccc(OCC(=O)NC(=S)Nc2ccccn2)c(Br)c1`: the cell number change was -4.91%.

In the case of `COc1ccc(Cl)cc1NC(=S)N(Cc1ccccc1C)CC1CCC(C(=O)O)CC1` (stereo unspecified), the cell number change is -9.07%. In addition, the AC50 under setting [2] was 0.58 µM [rising, partial curve].

Take `CN(C)/C=C/C(=O)c1ccc(S(=O)c2ccccc2)cc1` (stereo unspecified): the cell number change was found to be 12.6%. For the same compound, the AC50 under setting [1] is 0.13 µM [falling, full curve, poor fit].

Regarding `COc1ccc(CCNS(=O)(=O)c2ccc3c(c2)CCN3C(=O)CCC(=O)O)cc1OC`, the cell number change is -137%. Under setting [1], the AC50 is 4.11 µM [falling, full curve].

For the compound `CCOc1ccccc1NS(=O)(=O)c1cc2c3c(c1)C(C)C(=O)N3CCC2` (stereo unspecified), the AC50 under setting [2] was 29.1 µM [falling, single point].

For the compound `C=C(C)Cn1c(Sc2nnc(C)s2)nc2c1c(=O)[nH]c(=O)n2C`, the cell number change is -6.35%. The AC50 under setting [2] was 20.6 µM [falling, partial curve, poor fit].

Consider `N#CCC(=O)Nc1ccc(C(=O)OCC(=O)C23CC4CC(CC(C4)C2)C3)cc1`, for which the cell number change was -36.2%. Moreover, the half-maximal activity concentration (AC50) under setting [1] is 1.46 µM [falling, full curve]. The half-maximal activity concentration (AC50) under setting [2] is 3.26 µM [falling, full curve, poor fit].

`COc1ccc(C2C(C#N)=C(N)OC3=C2C(=O)CCC3)cc1Cn1nc(C)c([N+](=O)[O-])c1C` (stereo unspecified): the cell number change worked out at 45%. Besides, the AC50 under setting [1] was 5.17 µM [rising, full curve]. The half-maximal activity concentration (AC50) under setting [2] was 6.51 µM [rising, single point].

In the case of `CC1CCC(NC(=O)c2nn(C)c3c2CS(=O)(=O)c2ccccc2-3)CC1` (stereo unspecified), the cell number change is -20.5%.

For `O=C(Oc1ccc2c(=O)c(Oc3ccc4ccccc4c3)coc2c1)c1ccco1`, the cell number change is -14.6%. The half-maximal activity concentration (AC50) under setting [2] was 4.61 µM [falling, single point].

In the case of `Cc1cccc(N=C2NC(=O)S/C2=C\c2ccco2)c1`, the cell number change turned out to be 0.427%. Also, under setting [2], the half-maximal activity concentration (AC50) was 0.366 µM [rising, full curve, poor fit].

With `Cc1ccc(NC(=O)c2c(C)nc3sc(C(=O)NC4CCCC4)c(N)c3c2-c2ccco2)c(C)c1`, the cell number change turned out to be 26.3%. In addition, under setting [2], the half-maximal activity concentration (AC50) is 29.1 µM [rising, single point].

`N=C1S/C(=C\c2ccco2)C(=O)N1c1nccs1`: the cell number change was -1.09%. Under setting [2], the AC50 was 6.51 µM [rising, single point].

On to `Cc1ccc(NS(=O)(=O)c2ccc(C(=O)NCC(c3ccco3)N(C)C)cc2)cc1` (stereo unspecified), for which the cell number change is -4.69%. Further, the AC50 under setting [2] was 6.51 µM [falling, full curve].

Turning to `CN(C)C(=O)/C(=C\c1ccc(-c2cccc([N+](=O)[O-])c2)o1)NC(=O)c1ccccc1`, the cell number change turned out to be 10.5%. Besides, the concentration at half-maximal activity (AC50) under setting [2] was 0.651 µM [falling, single point].

On to `CCCCCCn1c(CN2CCN(CCO)CC2)nc2c1c(=O)n(C)c(=O)n2C`, for which, under setting [2], the AC50 is 4.11 µM [falling, partial curve, poor fit].

For the compound `O=C(NCc1ccncc1)C1CCN(S(=O)(=O)Cc2ccccc2)CC1`, the cell number change turned out to be 24.6%. Moreover, under setting [2], the AC50 is 0.651 µM [falling, single point].

With `CCN1C(=O)c2ccc(C(=O)NCc3ccco3)cc2C1=O`, the cell number change is -8.91%.

Regarding `COc1ccc(CCC(=O)Nc2nnc(C(F)(F)F)s2)cc1`, the cell number change was 41.3%. Further, the AC50 under setting [1] is 7.31 µM [rising, partial curve, poor fit]. In addition, under setting [2], the half-maximal activity concentration (AC50) was 29.1 µM [rising, single point].

As for `COc1cc(/C(O)=C(\C#N)c2nc3ccccc3[nH]2)cc(OC)c1OC`, the cell number change is -3.86%. Further, under setting [2], the half-maximal activity concentration (AC50) is 6.51 µM [rising, single point].

As a reminder, the AC50 is the midpoint of the concentration-response curve, whichever way the signal moves. Lower therefore signals activity at low concentration.
